# The list shows a part of the results.
# Chains of the proteins cited; added tags and fusions are not shown. Lines headed by an entry give the natural chain unless they say otherwise; changes in a name come on top.
# UniProt P0DMM9: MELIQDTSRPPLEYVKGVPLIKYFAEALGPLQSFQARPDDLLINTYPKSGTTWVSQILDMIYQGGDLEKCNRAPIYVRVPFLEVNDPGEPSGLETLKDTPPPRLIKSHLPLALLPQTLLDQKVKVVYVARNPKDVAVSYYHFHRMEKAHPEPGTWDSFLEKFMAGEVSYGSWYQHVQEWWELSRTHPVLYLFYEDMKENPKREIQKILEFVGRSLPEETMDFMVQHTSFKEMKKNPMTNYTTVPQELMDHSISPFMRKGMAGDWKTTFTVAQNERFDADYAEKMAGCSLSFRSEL
# UniProt P17542, whole entry, looked up: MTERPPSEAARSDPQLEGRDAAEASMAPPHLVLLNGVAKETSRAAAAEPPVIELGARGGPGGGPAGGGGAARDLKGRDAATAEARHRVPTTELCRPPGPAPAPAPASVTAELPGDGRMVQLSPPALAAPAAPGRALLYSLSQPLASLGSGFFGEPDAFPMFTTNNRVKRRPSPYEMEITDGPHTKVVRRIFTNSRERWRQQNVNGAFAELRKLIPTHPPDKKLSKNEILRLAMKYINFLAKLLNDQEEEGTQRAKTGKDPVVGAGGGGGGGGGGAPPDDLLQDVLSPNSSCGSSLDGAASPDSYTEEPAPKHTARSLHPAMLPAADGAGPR
# UniProt Q92844: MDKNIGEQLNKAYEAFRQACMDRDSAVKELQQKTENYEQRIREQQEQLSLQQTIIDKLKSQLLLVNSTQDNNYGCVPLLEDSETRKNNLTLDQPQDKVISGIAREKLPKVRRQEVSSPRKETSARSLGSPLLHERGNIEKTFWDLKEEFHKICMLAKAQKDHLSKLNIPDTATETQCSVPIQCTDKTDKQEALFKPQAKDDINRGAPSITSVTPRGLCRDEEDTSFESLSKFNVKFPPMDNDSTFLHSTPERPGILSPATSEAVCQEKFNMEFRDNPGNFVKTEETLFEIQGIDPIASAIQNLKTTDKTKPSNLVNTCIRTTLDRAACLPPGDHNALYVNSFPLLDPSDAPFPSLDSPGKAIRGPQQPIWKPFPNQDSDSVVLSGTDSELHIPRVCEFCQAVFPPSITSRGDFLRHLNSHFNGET
# UniProt Q5VSL9: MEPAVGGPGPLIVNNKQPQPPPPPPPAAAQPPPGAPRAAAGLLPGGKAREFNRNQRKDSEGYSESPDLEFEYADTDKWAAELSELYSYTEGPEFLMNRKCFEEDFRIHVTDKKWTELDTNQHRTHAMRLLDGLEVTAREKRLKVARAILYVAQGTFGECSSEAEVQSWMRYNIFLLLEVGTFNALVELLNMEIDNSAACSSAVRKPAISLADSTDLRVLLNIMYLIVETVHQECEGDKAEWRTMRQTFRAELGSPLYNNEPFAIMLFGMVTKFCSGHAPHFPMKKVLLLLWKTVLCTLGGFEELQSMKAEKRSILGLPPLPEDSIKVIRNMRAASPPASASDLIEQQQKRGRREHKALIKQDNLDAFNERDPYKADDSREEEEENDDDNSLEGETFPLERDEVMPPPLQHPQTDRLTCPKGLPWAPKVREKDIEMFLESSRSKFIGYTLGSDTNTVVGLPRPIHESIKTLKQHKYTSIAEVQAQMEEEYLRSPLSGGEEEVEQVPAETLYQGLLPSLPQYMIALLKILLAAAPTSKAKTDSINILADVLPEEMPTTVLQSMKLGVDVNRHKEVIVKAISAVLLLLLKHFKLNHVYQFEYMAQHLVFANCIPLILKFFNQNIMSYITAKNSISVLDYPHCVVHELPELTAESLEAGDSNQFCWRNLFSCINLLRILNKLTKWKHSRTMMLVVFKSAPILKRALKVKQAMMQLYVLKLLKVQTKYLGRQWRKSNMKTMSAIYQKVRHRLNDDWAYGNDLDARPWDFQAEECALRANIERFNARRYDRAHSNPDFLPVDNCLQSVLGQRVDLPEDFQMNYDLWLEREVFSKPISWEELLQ
# UniProt O15260: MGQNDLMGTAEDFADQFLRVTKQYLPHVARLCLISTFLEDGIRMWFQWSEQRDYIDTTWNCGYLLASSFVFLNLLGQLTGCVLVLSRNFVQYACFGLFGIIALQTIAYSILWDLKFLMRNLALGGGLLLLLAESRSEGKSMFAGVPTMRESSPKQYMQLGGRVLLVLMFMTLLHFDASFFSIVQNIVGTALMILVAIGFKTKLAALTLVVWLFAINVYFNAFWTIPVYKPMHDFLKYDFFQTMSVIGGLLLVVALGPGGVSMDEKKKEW
# UniProt Q9ULQ0: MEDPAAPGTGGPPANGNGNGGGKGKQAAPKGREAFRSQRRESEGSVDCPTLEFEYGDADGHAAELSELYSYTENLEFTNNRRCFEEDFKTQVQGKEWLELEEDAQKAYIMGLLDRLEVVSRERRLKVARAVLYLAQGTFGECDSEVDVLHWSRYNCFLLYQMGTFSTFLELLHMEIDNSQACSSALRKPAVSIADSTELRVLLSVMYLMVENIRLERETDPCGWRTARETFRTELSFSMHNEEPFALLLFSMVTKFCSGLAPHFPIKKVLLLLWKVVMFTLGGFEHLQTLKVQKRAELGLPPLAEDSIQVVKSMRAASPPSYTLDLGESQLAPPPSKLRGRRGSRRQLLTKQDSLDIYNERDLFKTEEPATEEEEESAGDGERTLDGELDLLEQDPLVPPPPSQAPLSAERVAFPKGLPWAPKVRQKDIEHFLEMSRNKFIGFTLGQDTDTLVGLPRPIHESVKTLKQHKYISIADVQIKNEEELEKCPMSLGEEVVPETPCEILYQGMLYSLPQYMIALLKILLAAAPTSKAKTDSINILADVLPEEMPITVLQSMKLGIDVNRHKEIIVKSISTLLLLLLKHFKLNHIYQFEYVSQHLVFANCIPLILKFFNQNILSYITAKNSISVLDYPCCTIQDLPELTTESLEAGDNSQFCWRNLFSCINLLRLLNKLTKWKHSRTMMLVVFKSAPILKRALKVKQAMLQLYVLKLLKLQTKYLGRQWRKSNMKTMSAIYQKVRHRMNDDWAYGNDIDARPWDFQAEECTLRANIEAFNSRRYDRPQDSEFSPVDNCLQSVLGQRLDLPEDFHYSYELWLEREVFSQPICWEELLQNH
# UniProt Q13190: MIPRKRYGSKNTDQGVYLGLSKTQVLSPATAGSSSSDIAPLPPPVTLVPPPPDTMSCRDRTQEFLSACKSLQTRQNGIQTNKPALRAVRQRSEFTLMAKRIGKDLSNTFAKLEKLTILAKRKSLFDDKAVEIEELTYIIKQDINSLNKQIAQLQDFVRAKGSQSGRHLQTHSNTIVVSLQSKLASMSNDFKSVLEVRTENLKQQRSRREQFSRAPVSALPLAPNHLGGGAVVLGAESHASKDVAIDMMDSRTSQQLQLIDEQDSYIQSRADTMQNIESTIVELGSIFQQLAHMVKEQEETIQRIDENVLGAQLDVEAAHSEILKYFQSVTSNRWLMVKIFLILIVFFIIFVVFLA
# UniProt Q15208: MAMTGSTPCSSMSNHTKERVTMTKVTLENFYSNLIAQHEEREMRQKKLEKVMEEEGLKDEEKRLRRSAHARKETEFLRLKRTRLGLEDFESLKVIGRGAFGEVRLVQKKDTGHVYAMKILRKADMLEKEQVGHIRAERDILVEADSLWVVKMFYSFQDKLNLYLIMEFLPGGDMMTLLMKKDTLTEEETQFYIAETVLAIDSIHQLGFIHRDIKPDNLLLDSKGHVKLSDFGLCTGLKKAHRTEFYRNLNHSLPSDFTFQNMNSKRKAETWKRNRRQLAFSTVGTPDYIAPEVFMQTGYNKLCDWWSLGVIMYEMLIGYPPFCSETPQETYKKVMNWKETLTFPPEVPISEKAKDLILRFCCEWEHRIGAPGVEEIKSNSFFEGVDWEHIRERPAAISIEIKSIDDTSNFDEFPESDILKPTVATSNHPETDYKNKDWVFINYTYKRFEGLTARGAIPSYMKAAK
# UniProt Q13148, whole entry, looked up: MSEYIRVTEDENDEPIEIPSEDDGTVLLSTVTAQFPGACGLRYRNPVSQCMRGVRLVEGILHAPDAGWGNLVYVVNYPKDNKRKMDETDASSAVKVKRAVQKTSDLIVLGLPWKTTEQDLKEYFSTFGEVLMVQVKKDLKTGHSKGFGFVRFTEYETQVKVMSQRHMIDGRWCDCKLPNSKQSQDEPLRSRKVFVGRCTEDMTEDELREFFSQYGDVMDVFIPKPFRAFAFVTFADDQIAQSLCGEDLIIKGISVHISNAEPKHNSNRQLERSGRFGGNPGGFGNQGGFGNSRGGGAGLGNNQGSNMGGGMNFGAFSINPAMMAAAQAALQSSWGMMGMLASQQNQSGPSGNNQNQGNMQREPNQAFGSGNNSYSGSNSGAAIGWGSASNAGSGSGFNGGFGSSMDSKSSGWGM
# UniProt O15533, whole entry, looked up: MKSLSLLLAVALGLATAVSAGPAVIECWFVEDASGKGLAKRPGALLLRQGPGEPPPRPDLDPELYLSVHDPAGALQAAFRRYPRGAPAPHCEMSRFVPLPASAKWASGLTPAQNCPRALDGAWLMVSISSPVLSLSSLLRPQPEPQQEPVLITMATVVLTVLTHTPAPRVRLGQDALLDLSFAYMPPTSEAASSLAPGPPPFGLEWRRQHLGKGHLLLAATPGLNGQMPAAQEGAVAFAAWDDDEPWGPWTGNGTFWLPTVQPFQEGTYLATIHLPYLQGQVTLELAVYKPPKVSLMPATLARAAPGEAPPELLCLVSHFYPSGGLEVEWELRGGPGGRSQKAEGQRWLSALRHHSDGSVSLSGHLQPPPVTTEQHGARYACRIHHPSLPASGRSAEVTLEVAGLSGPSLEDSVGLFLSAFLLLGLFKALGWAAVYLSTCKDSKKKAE
# UniProt P37837: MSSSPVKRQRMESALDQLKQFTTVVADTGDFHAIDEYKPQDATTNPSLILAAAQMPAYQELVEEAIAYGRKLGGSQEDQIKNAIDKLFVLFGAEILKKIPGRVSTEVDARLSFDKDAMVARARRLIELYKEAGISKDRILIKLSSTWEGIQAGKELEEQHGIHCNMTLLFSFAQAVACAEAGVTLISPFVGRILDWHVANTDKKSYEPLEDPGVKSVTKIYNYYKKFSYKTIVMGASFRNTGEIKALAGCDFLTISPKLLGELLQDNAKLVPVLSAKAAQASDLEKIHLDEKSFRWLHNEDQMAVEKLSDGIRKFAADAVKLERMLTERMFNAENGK
# UniProt Q4KMP7: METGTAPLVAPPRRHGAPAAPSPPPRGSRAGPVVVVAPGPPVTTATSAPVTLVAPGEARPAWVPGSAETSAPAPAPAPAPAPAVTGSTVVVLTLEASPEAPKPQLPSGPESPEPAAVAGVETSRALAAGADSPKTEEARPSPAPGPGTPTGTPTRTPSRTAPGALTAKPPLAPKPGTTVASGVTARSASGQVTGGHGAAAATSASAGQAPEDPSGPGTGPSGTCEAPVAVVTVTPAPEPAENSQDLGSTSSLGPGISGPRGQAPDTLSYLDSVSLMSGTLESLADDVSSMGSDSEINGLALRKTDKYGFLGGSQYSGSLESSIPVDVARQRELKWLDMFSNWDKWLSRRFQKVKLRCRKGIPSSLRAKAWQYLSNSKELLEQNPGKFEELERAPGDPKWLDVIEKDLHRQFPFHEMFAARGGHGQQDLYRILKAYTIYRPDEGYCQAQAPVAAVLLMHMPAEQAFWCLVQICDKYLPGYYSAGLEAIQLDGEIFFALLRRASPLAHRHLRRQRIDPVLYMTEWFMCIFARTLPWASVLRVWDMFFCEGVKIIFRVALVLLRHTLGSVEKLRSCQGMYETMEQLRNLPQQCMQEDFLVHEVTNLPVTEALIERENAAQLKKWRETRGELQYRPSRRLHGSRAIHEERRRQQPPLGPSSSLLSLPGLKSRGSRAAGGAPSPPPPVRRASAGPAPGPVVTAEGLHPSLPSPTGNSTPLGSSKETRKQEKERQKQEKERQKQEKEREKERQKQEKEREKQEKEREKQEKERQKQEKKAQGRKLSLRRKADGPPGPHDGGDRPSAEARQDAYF
# UniProt Q16563: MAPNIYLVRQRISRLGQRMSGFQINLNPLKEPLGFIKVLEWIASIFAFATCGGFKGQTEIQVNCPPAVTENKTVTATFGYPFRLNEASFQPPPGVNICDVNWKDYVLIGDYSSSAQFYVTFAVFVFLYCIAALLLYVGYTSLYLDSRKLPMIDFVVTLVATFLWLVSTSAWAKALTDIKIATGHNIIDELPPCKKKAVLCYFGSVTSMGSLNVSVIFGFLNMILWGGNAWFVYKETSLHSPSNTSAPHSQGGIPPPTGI
# UniProt O43752: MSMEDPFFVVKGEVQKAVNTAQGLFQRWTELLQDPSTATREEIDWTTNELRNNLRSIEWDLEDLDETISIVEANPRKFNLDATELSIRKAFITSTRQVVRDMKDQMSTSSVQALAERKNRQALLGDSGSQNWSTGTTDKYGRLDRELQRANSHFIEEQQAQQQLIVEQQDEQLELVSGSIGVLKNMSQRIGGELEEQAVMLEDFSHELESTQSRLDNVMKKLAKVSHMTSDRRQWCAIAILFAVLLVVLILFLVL
# UniProt P37802: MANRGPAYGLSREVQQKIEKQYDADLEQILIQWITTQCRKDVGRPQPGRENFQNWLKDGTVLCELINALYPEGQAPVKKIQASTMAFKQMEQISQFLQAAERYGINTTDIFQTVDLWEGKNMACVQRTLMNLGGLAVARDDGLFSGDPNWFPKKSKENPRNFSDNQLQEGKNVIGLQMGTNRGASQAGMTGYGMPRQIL
# Columns and labels:
# Experiment in all cases: log2 fold change, soluble protein after heating vs DMSO (PISA); higher = thermal stabilisation; K562 cells, 10 uM, 30 min; active = over 0.2 and 3.5 SD of the protein, either way, in both replicates (recomputed)
# [1] = compound: CC[C@@H]1C(=O)N(C)c2cnc(Nc3ccc(C(=O)NC4CCN(C)CC4)cc3OC)nc2N1C1CCCC1
# How it was run: (§1)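 Values are thermal stability changes relative to control samples and are taken from duplicates. They are stated as log2 fold changes. Before quantification by TMTpro 16plex LC-MS/MS with equalised channel sums, K562 cells at 2×10^6 cells/mL were treated with 10 μM compound for 30 min, heated in aliquots for 3 min across 48°C-58°C, pooled, extracted in PBS with 0.5% NP-40 at 4°C, and centrifuged at 21,000xg for 90 min to give the soluble supernatant.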
# volasertib = compound: CC[C@@H]1C(=O)N(C)c2cnc(Nc3ccc(C(=O)N[C@H]4CC[C@H](N5CCN(CC6CC6)CC5)CC4)cc3OC)nc2N1C(C)C [volasertib]
# How it was run: as §1
# [2] = compound: CC[C@H](C)N1C=C(C2=C(C=C(C=C21)C3=CN=C(C=C3)N4CCNCC4)C(=O)NCC5=C(C=C(NC5=O)C)C)C
# How it was run: as §1
# epoxomicin = compound: CC[C@H](C)[C@@H](C(=O)N[C@@H]([C@@H](C)O)C(=O)N[C@@H](CC(C)C)C(=O)[C@]1(CO1)C)NC(=O)[C@H]([C@@H](C)CC)N(C)C(=O)C [epoxomicin]
# How it was run: as §1
# [3] = compound: CCn1c(C(=O)N(C2CC2)C2CC2)cc2c3c(ncn3C)c(Nc3cc(C)n(C)n3)nc21
# How it was run: as §1
# [4] = compound: CCn1cc(-c2ccnc3[nH]c(-c4cccc(CN(C)C)c4)cc23)c(-c2ccc(NC(=O)N(C)C)cc2)n1
# How it was run: as §1
# [5] = compound: CN(C)CC(=O)Nc1ccc2[nH]c(=O)c3ccccc3c2c1
# How it was run: as §1
# rosiglitazone = compound: CN(CCOC1=CC=C(C=C1)C[C@H]2C(=O)NC(=O)S2)C3=CC=CC=N3 (racemic) [rosiglitazone]
# How it was run: as §1
# [6] = compound: CN1C2=C(C3=C1C(=O)N(N=C3)CC4=CC(=CC=C4)N)SC(=C2)S(=O)C
# How it was run: as §1
# [7] = compound: CN1CCC(CNc2ccc3ncc(-c4cccc(OC(F)(F)F)c4)n3n2)CC1
# How it was run: as §1
# saracatinib = compound: CN1CCN(CCOc2cc(OC3CCOCC3)c3c(Nc4c(Cl)ccc5c4OCO5)ncnc3c2)CC1 [saracatinib]
# How it was run: as §1
# sotrastaurin = compound: CN1CCN(c2nc(C3=C(c4c[nH]c5ccccc45)C(=O)NC3=O)c3ccccc3n2)CC1 [sotrastaurin]
# How it was run: as §1
# alvocidib = compound: CN1CC[C@H](c2c(O)cc(O)c3c(=O)cc(-c4ccccc4Cl)oc23)[C@H](O)C1 [alvocidib]
# How it was run: as §1
# Tubastatin A = compound: CN1CCc2c(c3ccccc3n2Cc2ccc(C(=O)NO)cc2)C1 [Tubastatin A]
# How it was run: as §1
# [8] = compound: CNC(=O)C1=CC=CC=C1NC2=NC(=NC=C2Cl)NC3=C(C=C(C=C3)N4CCOCC4)OC
# How it was run: as §1
# defactinib = compound: CNC(=O)c1ccc(Nc2ncc(C(F)(F)F)c(NCc3nccnc3N(C)S(C)(=O)=O)n2)cc1 [defactinib]
# How it was run: as §1
# rucaparib = compound: CNCc1ccc(-c2[nH]c3cc(F)cc4c3c2CCNC4=O)cc1 [rucaparib]
# How it was run: as §1
# [9] = compound: CNc1nc(-c2ccc3c(N)n[nH]c3c2)cc(N2C[C@@H](C(=O)NC3CCCCC3)CC[C@H]2C)n1
# How it was run: as §1
# encorafenib = compound: COC(=O)N[C@@H](C)CNc1nccc(-c2cn(C(C)C)nc2-c2cc(Cl)cc(NS(C)(=O)=O)c2F)n1 [encorafenib]
# How it was run: as §1
# [10] = compound: COC(=O)[C@H](CCSC)NC(=O)C1=C(C=C(C=C1)NC[C@H](CS)N)C2=CC=CC=C2
# How it was run: as §1
Target,log2 fold change [1],log2 fold change (volasertib),log2 fold change [2],log2 fold change (epoxomicin),log2 fold change [3],log2 fold change [4],log2 fold change [5],log2 fold change (rosiglitazone),log2 fold change [6],log2 fold change [7],log2 fold change (saracatinib),log2 fold change (sotrastaurin),log2 fold change (alvocidib),log2 fold change (Tubastatin A),log2 fold change [8],log2 fold change (defactinib),log2 fold change (rucaparib),log2 fold change [9],log2 fold change (encorafenib),log2 fold change [10]
SULT1A3 isoform 3 (UniProt P0DMM9),inactive: -0.094,inactive: -0.02,inactive: -0.036,inactive: 0.238,inactive: -0.007,inactive: 0.028,inactive: -0.075,inactive: 0.008,inactive: 0.082,inactive: -0.042,inactive: -0.058,inactive: 0.021,inactive: -0.194,inactive: -0.006,inactive: 0.119,inactive: -0.114,inactive: -0.088,inactive: 0.13,inactive: -0.009,inactive: -0.045
TAL1 (UniProt P17542),inactive: 0.016,inactive: 0.001,inactive: -0.047,inactive: 0.031,inactive: 0.01,inactive: 0.025,inactive: 0.013,inactive: 0.018,inactive: -0.011,inactive: -0.024,inactive: 0.039,inactive: 0.024,inactive: -0.014,inactive: -0.008,inactive: -0.042,inactive: -0.026,inactive: -0.047,inactive: -0.051,inactive: 0.026,inactive: -0.002
TANK (UniProt Q92844),inactive: 0.057,inactive: -0.105,inactive: -0.064,inactive: -0.021,,inactive: 0.074,inactive: -0.012,,inactive: -0.117,inactive: -0.072,inactive: 0.118,inactive: 0.033,,inactive: 0.03,inactive: 0.236,inactive: 0.045,inactive: -0.016,inactive: 0.052,inactive: 0.064,inactive: -0.03
STRIP1 (UniProt Q5VSL9),inactive: -0.015,inactive: -0.13,inactive: 0.03,inactive: 0.065,inactive: -0.026,inactive: 0.003,inactive: 0.016,inactive: 0.067,inactive: -0.008,inactive: 0.039,inactive: 0.03,inactive: -0.025,inactive: 0.028,inactive: -0.011,inactive: 0.018,inactive: -0.124,inactive: 0.002,inactive: -0.059,inactive: 0.137,inactive: -0.067
SURF4 (UniProt O15260),inactive: 0.028,inactive: -0.033,inactive: -0.05,inactive: -0.084,inactive: -0.023,inactive: 0.015,inactive: -0.007,inactive: 0.033,inactive: -0.036,inactive: 0.107,inactive: 0.062,inactive: 0.007,inactive: -0.005,inactive: -0.067,inactive: -0.032,inactive: -0.03,inactive: -0.028,inactive: -0.028,inactive: -0.003,inactive: 0.027
STRIP2 (UniProt Q9ULQ0),inactive: 0.028,inactive: -0.189,inactive: -0.106,inactive: -0.05,inactive: -0.036,inactive: -0.036,inactive: 0.053,inactive: 0.061,inactive: -0.213,inactive: -0.04,inactive: -0.003,inactive: -0.131,inactive: -0.007,inactive: -0.03,inactive: -0.005,inactive: -0.047,inactive: -0.074,inactive: 0.091,inactive: 0.084,inactive: 0.051
SYNJ1 (UniProt O43426),inactive: 0.077,inactive: -0.009,inactive: -0.041,inactive: -0.061,inactive: -0.037,inactive: -0.012,inactive: -0.009,inactive: -0.005,inactive: 0.088,inactive: 0.076,inactive: 0.04,inactive: 0.032,inactive: 0.031,inactive: -0.019,inactive: -0.095,inactive: -0.034,inactive: 0.086,inactive: -0.071,inactive: 0.025,inactive: -0.118
STX5 (UniProt Q13190),inactive: -0.046,inactive: -0.206,inactive: 0.109,inactive: -0.014,inactive: -0.096,inactive: -0.132,inactive: 0.067,inactive: 0.056,inactive: 0.006,inactive: -0.025,inactive: -0.023,inactive: -0.107,inactive: -0.053,inactive: 0.003,inactive: -0.05,inactive: -0.063,inactive: 0.084,inactive: 0.017,inactive: 0.077,inactive: -0.161
STK38 (UniProt Q15208),inactive: -0.107,active: -0.363,inactive: 0.106,inactive: 0.035,,inactive: 0.003,inactive: 0.059,,inactive: -0.005,inactive: -0.068,inactive: -0.02,inactive: -0.055,,inactive: -0.016,inactive: -0.073,inactive: -0.127,inactive: 0.058,inactive: 0.005,inactive: 0.104,inactive: -0.064
TARDBP (UniProt Q13148),inactive: -0.008,inactive: -0.267,inactive: 0.012,inactive: -0.092,inactive: -0.214,inactive: 0.073,inactive: -0.067,inactive: 0.021,,inactive: -0.018,,inactive: -0.168,inactive: 0.17,inactive: 0.077,inactive: -0.086,inactive: -0.037,inactive: 0.242,,inactive: 0.083,inactive: -0.01
TAPBP isoform 3 (UniProt O15533),inactive: -0.062,inactive: -0.058,inactive: 0.046,inactive: 0.119,inactive: -0.055,inactive: -0.186,inactive: 0.065,inactive: 0.016,,inactive: -0.144,,inactive: -0.164,inactive: 0.078,inactive: 0.098,inactive: 0.012,inactive: -0.059,inactive: -0.053,,inactive: 0.194,inactive: -0.143
TALDO1 (UniProt P37837),inactive: -0.047,inactive: 0.033,inactive: 0.052,inactive: 0.058,inactive: 0.012,inactive: -0.059,inactive: 0,inactive: 0.037,inactive: -0.062,inactive: -0.089,inactive: -0.003,inactive: 0.009,inactive: -0.102,inactive: -0.016,inactive: -0.006,inactive: -0.016,inactive: -0.065,inactive: 0.01,inactive: 0.02,inactive: 0.007
TBC1D10B (UniProt Q4KMP7),inactive: -0.108,inactive: -0.114,inactive: 0.025,inactive: 0.019,,inactive: 0.004,inactive: -0.005,,inactive: -0.053,inactive: -0.185,inactive: -0.025,inactive: -0.036,,inactive: 0.001,inactive: -0.015,inactive: -0.008,inactive: 0.094,inactive: 0.009,inactive: 0.048,inactive: -0.023
SYPL1 (UniProt Q16563),inactive: 0.066,inactive: -0.184,inactive: -0.029,inactive: -0.031,inactive: 0.012,inactive: -0.129,inactive: -0.03,inactive: -0.011,inactive: -0.065,inactive: 0.147,inactive: 0.05,inactive: 0.034,inactive: -0.047,inactive: -0.007,inactive: 0.027,inactive: -0.025,inactive: -0.028,inactive: -0.032,inactive: 0.032,inactive: 0.005
STX6 (UniProt O43752),inactive: 0.01,inactive: -0.037,inactive: 0.016,inactive: 0.063,inactive: -0.029,inactive: -0.061,inactive: -0.014,inactive: 0.024,inactive: -0.063,inactive: -0.119,inactive: 0.015,inactive: -0.039,inactive: 0.019,inactive: 0.051,inactive: 0,inactive: -0.053,inactive: 0.026,inactive: 0.004,inactive: 0.006,inactive: 0.005
TACC3 (UniProt Q9Y6A5),inactive: -0.024,inactive: 0.024,inactive: -0.011,inactive: 0.023,inactive: 0.009,inactive: 0,inactive: 0.011,inactive: 0,inactive: -0.052,inactive: 0.007,inactive: -0.001,inactive: 0.005,inactive: -0.007,inactive: -0.003,inactive: 0.017,inactive: 0.003,inactive: -0.028,inactive: -0.03,inactive: -0.003,inactive: 0.021
TAGLN2 isoform 2 (UniProt P37802),inactive: -0.064,inactive: -0.067,inactive: 0.024,inactive: 0.028,inactive: -0.01,inactive: -0.048,inactive: 0.003,inactive: -0.013,inactive: -0.055,inactive: -0.01,inactive: 0.043,inactive: -0.002,inactive: -0.08,inactive: 0.008,inactive: 0.049,inactive: -0.035,inactive: 0.017,inactive: -0.002,inactive: -0.032,inactive: 0.001

# No new results follow: entries from further up.
Target,log2 fold change [1],log2 fold change (volasertib),log2 fold change [2],log2 fold change (epoxomicin),log2 fold change [3],log2 fold change [4],log2 fold change [5],log2 fold change (rosiglitazone),log2 fold change [6],log2 fold change [7],log2 fold change (saracatinib),log2 fold change (sotrastaurin),log2 fold change (alvocidib),log2 fold change (Tubastatin A),log2 fold change [8],log2 fold change (defactinib),log2 fold change (rucaparib),log2 fold change [9],log2 fold change (encorafenib),log2 fold change [10]
STX6 (UniProt O43752),inactive: 0.01,inactive: -0.037,inactive: 0.016,inactive: 0.063,inactive: -0.029,inactive: -0.061,inactive: -0.014,inactive: 0.024,inactive: -0.063,inactive: -0.119,inactive: 0.015,inactive: -0.039,inactive: 0.019,inactive: 0.051,inactive: 0,inactive: -0.053,inactive: 0.026,inactive: 0.004,inactive: 0.006,inactive: 0.005
TACC3 (UniProt Q9Y6A5),inactive: -0.024,inactive: 0.024,inactive: -0.011,inactive: 0.023,inactive: 0.009,inactive: 0,inactive: 0.011,inactive: 0,inactive: -0.052,inactive: 0.007,inactive: -0.001,inactive: 0.005,inactive: -0.007,inactive: -0.003,inactive: 0.017,inactive: 0.003,inactive: -0.028,inactive: -0.03,inactive: -0.003,inactive: 0.021

# Source: the supplement of paper PMC10849652
